Measurements as given in patent US20210395704A1.
These are yes or no findings as the source states them, for the method shown. In cells and extracts the contact can be indirect. Some entries that bind do so weakly or less than the wild type. Where a sequence is shown, tags or fusion partners need not be part of it.

By UniProt entry, the sequences of proteins in these tests, tags left out. Where a name states a change or a piece, a line headed by the entry shows the natural chain unless it says otherwise.
UniProt P37198: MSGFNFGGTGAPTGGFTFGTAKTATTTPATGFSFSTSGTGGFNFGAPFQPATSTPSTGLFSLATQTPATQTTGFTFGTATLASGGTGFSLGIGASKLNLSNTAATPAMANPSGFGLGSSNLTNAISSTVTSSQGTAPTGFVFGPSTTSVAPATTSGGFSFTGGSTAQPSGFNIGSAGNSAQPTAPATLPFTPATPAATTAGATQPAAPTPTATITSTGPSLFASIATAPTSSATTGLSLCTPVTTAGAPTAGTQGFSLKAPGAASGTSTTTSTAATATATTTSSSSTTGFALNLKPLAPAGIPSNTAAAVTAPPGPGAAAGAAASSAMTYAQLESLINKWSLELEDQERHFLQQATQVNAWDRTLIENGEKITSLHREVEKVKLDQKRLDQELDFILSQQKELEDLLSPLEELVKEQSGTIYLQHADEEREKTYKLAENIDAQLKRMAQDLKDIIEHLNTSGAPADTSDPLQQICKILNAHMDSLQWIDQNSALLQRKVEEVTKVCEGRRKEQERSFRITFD

Molecular target: Nup62-Flag-EPEA (UniProt P37198)
Test: co-immunoprecipitation (pull-down of OGT or of Nup62) from transfected cells

B1: HA-nEPEA-OGT(13) (protein)
chain: MAYPYDVPDYAAIAMGQLVESGGGSVQAGGSLRLSCAASGIDSSSYCMGWFRQRPGKEREGVARINGLGGVKTAYADSVKDRFTISRDNAENTVYLQMNSLKPEDTAIYYCAAKFSPGYCGGSWSNFGYWGQGTQVTVSSGAPEAAAKEAAAKEAAAKEAAAKGSMASSVGNVADSTEPTKRMLSFQGLAELAHREYQAGDFEAAERHCMQLWRQEPDNTGVLLLLSSIHFQCRRLDRSAHFSTLAIKQNPLLAEAYSNLGNVYKERGQLQEAIEHYRHALRLKPDFIDGYINLAAALVAAGDMEGAVQAYVSALQYNPDLYCVRSDLGNLLKALGRLEEAKACYLKAIETQPNFAVAWSNLGCVFNAQGEIWLAIHHFEKAVTLDPNFLDAYINLGNVLKEARIFDRAVAAYLRALSLSPNHAVVHGNLACVYYEQGLIDLAIDTYRRAIELQPHFPDAYCNLANALKEKGSVAEAEDCYNTALRLCPTHADSLNNLANIKREQGNIEEAVRLYRKALEVFPEFAAAHSNLASVLQQQGKLQEALMHYKEAIRISPTFADAYSNMGNTLKEMQDVQGALQCYTRAIQINPAFADAHSNLASIHKDSGNIPEAIASYRTALKLKPDFPDAYCNLAHCLQIVCDWTDYDERMKKLVSIVAEQLEKNRLPSVHPHHSMLYPLSHGFRKAIAERHGNLCLDKINVLHKPPYEHPKDLKLSDGRLRVGYVSSDFGNHPTSHLMQSIPGMHNPDKFEVFCYALSPDDGTNFRVKVMAEANHFIDLSQIPCNGKAADRIHQDGIHILVNMNGYTKGARNELFALRPAPIQAMWLGYPGTSGALFMDYIITDQETSPAEVAEQYSEKLAYMPHTFFIGDHANMFPHLKKKAVIDFKSNGHIYDNRIVLNGIDLKAFLDSLPDVKIVKMKCPDGGDNPDSSNTALNMPVIPMNTIAEAVIEMINRGQIQITINGFSISNGLATTQINNKAATGEEVPRTIIVTTRSQYGLPEDAIVYCNFNQLYKIDPSTLQMWANILKRVPNSVLWLLRFPAVGEPNIQQYAQNMGLPQNRIIFSPVAPKEEHVRRGQLADVCLDTPLCNGHTTGMDVLWAGTPMVTMPGETLASRVAASQLTCLGCLELIAKSRQEYEDIAVKLGTDLEYLKKIRGKVWKQRISSPLFNTKQYTMELERLYLQMWEHYAAGNKPDHMIKPVEVTESA
- binding: binds
